Laboratory results taken from article PMC5342210, “Staphylococcal protein Ecb impairs complement receptor-1 mediated recognition of opsonized bacteria” (PLoS ONE, 2017).
No constants are given. Whether binding was seen depends on the method and setting. Some results given as binding are weak or reduced against the parent protein; the word gives no strength.

The chains behind the UniProt entries cited, without tags or fusion partners. Where a name states a change or a piece, a line headed by the entry shows the natural chain unless it says otherwise. Residues count along the entry.
UniProt P17927, residues 42-2039: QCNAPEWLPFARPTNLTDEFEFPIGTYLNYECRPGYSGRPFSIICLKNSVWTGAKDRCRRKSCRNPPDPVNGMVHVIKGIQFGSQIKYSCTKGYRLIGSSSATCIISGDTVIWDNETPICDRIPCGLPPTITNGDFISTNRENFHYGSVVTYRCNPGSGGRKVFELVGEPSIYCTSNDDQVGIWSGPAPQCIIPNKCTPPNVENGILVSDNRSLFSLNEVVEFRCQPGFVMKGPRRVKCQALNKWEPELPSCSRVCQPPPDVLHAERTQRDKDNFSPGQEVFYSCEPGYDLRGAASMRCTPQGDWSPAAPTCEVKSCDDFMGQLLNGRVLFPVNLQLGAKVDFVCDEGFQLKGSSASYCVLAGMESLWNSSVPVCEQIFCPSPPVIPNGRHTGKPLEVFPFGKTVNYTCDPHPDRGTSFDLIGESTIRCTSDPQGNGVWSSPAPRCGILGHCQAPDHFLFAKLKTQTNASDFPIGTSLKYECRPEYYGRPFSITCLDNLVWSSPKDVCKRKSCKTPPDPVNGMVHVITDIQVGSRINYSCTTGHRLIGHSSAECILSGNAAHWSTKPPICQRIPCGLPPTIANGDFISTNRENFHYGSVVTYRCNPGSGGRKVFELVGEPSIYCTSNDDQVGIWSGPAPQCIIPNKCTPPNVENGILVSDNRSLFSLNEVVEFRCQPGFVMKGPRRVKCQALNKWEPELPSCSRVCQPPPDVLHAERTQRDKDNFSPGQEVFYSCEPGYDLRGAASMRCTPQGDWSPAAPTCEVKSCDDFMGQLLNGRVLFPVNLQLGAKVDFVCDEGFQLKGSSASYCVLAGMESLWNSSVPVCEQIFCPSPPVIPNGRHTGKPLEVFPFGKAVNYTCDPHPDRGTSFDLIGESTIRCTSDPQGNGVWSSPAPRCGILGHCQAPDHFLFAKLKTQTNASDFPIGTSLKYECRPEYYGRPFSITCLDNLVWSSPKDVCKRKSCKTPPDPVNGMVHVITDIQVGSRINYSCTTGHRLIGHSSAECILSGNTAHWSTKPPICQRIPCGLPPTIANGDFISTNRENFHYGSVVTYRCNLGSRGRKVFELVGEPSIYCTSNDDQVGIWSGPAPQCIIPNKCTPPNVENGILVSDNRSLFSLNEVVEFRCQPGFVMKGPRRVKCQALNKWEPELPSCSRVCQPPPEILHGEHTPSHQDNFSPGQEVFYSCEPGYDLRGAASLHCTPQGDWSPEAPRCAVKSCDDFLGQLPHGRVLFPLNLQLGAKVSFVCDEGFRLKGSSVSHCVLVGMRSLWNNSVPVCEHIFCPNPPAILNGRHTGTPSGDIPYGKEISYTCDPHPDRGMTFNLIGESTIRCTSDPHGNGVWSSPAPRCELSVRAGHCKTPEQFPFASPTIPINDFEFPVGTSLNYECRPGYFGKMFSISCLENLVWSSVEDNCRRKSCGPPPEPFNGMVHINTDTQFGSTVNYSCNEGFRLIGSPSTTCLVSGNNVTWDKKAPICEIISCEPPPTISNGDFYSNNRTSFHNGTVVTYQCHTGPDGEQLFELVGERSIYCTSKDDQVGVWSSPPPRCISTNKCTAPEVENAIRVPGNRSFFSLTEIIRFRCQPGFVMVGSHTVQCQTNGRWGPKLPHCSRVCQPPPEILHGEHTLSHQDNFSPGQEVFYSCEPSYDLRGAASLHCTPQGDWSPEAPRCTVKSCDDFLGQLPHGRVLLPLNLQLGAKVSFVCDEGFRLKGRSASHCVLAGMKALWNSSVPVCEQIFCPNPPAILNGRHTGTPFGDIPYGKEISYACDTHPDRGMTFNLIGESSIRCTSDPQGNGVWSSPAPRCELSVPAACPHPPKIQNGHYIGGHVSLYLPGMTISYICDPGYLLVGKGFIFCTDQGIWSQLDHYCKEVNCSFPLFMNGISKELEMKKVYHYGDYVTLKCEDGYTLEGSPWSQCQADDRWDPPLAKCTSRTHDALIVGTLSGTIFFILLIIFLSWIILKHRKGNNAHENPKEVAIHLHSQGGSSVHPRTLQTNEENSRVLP
UniProt P01024: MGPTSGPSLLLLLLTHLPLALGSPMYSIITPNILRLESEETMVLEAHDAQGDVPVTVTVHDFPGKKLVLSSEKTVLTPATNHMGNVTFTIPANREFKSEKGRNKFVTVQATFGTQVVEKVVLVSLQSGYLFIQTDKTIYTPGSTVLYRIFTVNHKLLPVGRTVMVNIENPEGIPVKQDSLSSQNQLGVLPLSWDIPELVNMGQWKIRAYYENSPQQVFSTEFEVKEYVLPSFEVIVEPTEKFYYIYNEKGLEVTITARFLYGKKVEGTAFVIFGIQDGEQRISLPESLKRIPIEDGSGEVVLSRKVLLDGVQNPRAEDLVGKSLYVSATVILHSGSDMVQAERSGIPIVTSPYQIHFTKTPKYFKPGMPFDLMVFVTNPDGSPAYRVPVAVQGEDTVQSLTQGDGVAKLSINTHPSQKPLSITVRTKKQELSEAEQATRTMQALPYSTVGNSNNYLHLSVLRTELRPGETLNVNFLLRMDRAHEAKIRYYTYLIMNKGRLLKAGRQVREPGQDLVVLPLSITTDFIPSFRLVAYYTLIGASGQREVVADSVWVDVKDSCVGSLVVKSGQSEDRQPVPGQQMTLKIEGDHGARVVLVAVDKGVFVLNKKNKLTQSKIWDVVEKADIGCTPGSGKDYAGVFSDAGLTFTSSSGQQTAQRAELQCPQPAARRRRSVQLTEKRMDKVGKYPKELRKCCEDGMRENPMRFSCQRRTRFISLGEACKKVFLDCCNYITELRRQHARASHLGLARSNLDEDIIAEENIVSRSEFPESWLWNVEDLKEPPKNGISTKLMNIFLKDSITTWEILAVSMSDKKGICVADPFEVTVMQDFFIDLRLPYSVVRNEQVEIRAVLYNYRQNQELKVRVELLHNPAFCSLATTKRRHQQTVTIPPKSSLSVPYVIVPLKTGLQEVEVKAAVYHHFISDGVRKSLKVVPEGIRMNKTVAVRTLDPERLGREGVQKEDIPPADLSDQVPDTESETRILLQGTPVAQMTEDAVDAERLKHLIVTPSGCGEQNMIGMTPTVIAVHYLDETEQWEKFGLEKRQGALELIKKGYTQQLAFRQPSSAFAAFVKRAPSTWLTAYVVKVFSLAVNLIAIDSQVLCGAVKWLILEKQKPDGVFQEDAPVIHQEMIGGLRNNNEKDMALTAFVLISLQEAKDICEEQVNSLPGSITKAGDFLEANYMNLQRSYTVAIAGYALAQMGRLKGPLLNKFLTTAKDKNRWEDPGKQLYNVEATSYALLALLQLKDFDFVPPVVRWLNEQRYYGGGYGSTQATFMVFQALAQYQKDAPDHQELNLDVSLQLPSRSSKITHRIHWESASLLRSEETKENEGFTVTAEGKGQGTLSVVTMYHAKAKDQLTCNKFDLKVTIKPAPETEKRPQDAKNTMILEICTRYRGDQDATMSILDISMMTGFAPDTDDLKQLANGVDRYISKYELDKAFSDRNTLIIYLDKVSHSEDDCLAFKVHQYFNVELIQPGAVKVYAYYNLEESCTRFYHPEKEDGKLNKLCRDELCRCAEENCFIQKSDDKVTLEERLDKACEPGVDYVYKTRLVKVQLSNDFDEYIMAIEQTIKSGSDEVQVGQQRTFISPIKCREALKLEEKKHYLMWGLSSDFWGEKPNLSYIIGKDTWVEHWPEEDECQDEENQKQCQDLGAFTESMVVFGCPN

Molecular target: Complement receptor-1 (CR1, CD35), cell surface-bound (human (endogenous in red blood cells and neutrophils)) (UniProt P17927)
Assay: flow cytometry on cells; about 1 x 10^6 washed red cells with C3b (50 ug/ml) together with Ecb (0-0.1 uM), 30 min at 4 C; rabbit anti-human C3c and Alexa Fluor 488-labeled goat anti-rabbit; only the binder purified

C3b (from UniProt P01024)
binding: binds
